Assay results taken from publication PMC9557730.
Positions count from the first letter of the chain named. Results are given in words; binding and its absence hold for the method and conditions named. In cells and extracts the contact can be indirect. Some entries that bind do so weakly or less than the wild type. Where a sequence is shown, tags or fusion partners need not be part of it.

Assays:
Assay in all cases: co-IP; C-terminal 3x FLAG-tagged Tfb2 variants coexpressed with endogenous Tfb2 in yeast; whole-cell extract (50 mM Hepes pH 7.6, 250 mM KOAc) on FLAG-M2 agarose 2 h at 4 °C; eluted with triple FLAG peptide; Western blot for Ssl2, normalised to Tfb2
[1] = molecular target: T1, C-terminal 3× FLAG-tagged WT Tfb2 (Saccharomyces cerevisiae) (UniProt Q02939)
T1 sequence: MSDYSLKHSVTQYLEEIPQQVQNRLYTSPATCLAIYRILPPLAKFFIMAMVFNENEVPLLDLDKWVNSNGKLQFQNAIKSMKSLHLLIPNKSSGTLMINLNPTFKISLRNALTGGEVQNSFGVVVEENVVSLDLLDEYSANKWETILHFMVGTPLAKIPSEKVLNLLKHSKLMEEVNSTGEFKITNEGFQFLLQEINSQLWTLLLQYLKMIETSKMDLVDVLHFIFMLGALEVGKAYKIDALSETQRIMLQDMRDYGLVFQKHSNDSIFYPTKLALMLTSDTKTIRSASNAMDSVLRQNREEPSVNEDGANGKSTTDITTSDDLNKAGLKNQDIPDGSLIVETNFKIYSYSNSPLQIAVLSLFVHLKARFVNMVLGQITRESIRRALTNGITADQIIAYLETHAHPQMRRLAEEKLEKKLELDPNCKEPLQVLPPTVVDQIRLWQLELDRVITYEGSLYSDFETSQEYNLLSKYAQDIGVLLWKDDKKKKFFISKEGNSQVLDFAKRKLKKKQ

[2] = molecular target: T2, Tfb2 RF369–370AA, C-terminal 3× FLAG-tagged (Saccharomyces cerevisiae) (UniProt Q02939)
T2 sequence: T1 sequence with R369A, F370A

[3] = molecular target: T3, Tfb2 EK342+346RE, C-terminal 3× FLAG-tagged (Saccharomyces cerevisiae) (UniProt Q02939)
T3 sequence: T1 sequence with E342R, K346E

B1: Ssl2 (protein, UniProt Q00578 1-843)
chain: MTDVEGYQPKSKGKIFPDMGESFFSSDEDSPATDAEIDENYDDNRETSEGRGERDTGAMVTGLKKPRKKTKSSRHTAADSSMNQMDAKDKALLQDTNSDIPADFVPDSVSGMFRSHDFSYLRLRPDHASRPLWISPSDGRIILESFSPLAEQAQDFLVTIAEPISRPSHIHEYKITAYSLYAAVSVGLETDDIISVLDRLSKVPVAESIINFIKGATISYGKVKLVIKHNRYFVETTQADILQMLLNDSVIGPLRIDSDHQVQPPEDVLQQQLQQTAGKPATNVNPNDVEAVFSAVIGGDNEREEEDDDIDAVHSFEIANESVEVVKKRCQEIDYPVLEEYDFRNDHRNPDLDIDLKPSTQIRPYQEKSLSKMFGNGRARSGIIVLPCGAGKTLVGITAACTIKKSVIVLCTSSVSVMQWRQQFLQWCTLQPENCAVFTSDNKEMFQTESGLVVSTYSMVANTRNRSHDSQKVMDFLTGREWGFIILDEVHVVPAAMFRRVVSTIAAHAKLGLTATLVREDDKIGDLNFLIGPKLYEANWMELSQKGHIANVQCAEVWCPMTAEFYQEYLRETARKRMLLYIMNPTKFQACQFLIQYHERRGDKIIVFSDNVYALQEYALKMGKPFIYGSTPQQERMNILQNFQYNDQINTIFLSKVGDTSIDLPEATCLIQISSHYGSRRQEAQRLGRILRAKRRNDEGFNAFFYSLVSKDTQEMYYSTKRQAFLVDQGYAFKVITHLHGMENIPNLAYASPRERRELLQEVLLKNEEAAGIEVGDDADNSVGRGSNGHKRFKSKAVRGEGSLSGLAGGEDMAYMEYSTNKNKELKEHHPLIRKMYYKNLKK
binding [1]: binds
binding [2]: no binding
binding [3]: no binding
